Here are results for 6 molecules from PMC12807465.

The chains behind the UniProt entries cited, without tags or fusion partners. Residues count along the entry.
UniProt P11021, residues 19-654: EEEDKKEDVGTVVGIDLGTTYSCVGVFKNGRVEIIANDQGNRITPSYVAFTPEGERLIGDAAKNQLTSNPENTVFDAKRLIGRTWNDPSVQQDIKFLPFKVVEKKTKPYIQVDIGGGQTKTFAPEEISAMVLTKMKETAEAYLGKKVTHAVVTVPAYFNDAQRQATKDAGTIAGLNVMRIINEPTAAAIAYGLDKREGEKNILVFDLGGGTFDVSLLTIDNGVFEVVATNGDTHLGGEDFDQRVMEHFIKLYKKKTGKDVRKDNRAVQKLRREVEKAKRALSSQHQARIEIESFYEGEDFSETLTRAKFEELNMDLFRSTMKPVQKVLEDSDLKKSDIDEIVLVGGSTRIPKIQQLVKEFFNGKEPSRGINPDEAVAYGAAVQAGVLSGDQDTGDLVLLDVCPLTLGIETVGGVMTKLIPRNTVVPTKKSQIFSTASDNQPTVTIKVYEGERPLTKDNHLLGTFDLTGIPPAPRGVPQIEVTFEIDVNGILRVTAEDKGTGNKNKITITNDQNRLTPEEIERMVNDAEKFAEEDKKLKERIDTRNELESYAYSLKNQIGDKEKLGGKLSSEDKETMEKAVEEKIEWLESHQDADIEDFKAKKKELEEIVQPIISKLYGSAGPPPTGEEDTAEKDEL
UniProt P30101, residues 25-505: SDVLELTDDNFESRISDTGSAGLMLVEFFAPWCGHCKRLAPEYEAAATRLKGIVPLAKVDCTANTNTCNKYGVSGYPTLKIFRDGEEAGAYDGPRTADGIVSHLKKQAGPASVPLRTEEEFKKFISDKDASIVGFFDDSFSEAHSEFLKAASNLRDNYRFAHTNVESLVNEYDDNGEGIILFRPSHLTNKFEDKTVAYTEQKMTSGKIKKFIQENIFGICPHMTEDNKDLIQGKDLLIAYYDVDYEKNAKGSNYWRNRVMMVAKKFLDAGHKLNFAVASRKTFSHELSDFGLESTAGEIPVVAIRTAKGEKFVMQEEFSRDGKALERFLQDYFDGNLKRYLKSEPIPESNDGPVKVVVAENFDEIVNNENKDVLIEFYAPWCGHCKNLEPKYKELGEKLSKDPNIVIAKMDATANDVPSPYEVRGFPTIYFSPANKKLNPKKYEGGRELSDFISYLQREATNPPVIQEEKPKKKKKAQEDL
UniProt P07237, residues 18-508: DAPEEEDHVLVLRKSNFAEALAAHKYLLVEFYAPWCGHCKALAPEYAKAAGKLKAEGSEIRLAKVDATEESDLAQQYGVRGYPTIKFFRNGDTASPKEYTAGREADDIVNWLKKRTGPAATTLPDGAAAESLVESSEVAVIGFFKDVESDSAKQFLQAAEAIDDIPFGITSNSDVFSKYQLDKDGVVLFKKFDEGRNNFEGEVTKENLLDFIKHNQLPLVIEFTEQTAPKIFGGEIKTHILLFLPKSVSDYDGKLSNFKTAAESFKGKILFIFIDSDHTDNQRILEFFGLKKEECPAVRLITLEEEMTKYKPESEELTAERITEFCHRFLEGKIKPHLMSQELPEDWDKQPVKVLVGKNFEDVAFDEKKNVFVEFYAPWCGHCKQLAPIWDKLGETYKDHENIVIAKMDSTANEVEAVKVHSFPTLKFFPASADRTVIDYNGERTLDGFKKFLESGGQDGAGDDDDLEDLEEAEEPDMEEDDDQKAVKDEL

The labels stand for the following.
T1: Flag-tagged UGT2B17 (UDP glucuronosyltransferase family 2 member B17), full length, expressed in prostate cancer cells (UniProt O75795)
T1 sequence: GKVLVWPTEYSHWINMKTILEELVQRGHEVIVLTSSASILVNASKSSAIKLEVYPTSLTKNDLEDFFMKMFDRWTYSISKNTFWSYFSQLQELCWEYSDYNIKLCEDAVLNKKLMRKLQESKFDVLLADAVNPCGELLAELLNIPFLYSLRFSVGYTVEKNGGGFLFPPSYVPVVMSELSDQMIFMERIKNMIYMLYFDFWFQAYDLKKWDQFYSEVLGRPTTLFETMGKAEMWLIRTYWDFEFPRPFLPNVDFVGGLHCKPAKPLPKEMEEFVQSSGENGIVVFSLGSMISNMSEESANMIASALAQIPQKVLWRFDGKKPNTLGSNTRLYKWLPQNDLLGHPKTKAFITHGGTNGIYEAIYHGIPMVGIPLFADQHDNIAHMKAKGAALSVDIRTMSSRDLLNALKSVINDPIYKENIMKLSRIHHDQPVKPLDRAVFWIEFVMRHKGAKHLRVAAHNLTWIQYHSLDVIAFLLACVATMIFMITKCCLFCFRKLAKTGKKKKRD

B1: ERP44 (protein, UniProt Q9BS26 30-406)
chain: EITSLDTENIDEILNNADVALVNFYADWCRFSQMLHPIFEEASDVIKEEFPNENQVVFARVDCDQHSDIAQRYRISKYPTLKLFRNGMMMKREYRGQRSVKALADYIRQQKSDPIQEIRDLAEITTLDRSKRNIIGYFEQKDSDNYRVFERVANILHDDCAFLSAFGDVSKPERYSGDNIIYKPPGHSAPDMVYLGAMTNFDVTYNWIQDKCVPLVREITFENGEELTEEGLPFLILFHMKEDTESLEIFQNEVARQLISEKGTINFLHADCDKFRHPLLHIQKTPADCPVIAIDSFRHMYVFGDFKDVLIPGKLKQFVFDLHSGKLHREFHHGPDPTDTAPGEQAQDVASSPPESSFQKLAPSEYRYTLLRDRDEL
B2: GANAB (protein, UniProt Q14697 29-944)
chain: ITLAVDRSNFKTCEESSFCKRQRSIRPGLSPYRALLDSLQLGPDSLTVHLIHEVTKVLLVLELQGLQKNMTRFRIDELEPRRPRYRVPDVLVADPPIARLSVSGRDENSVELTMAEGPYKIILTARPFRLDLLEDRSLLLSVNARGLLEFEHQRAPRVSQGSKDPAEGDGAQPEETPRDGDKPEETQGKAEKDEPGAWEETFKTHSDSKPYGPMSVGLDFSLPGMEHVYGIPEHADNLRLKVTEGGEPYRLYNLDVFQYELYNPMALYGSVPVLLAHNPHRDLGIFWLNAAETWVDISSNTAGKTLFGKMMDYLQGSGETPQTDVRWMSETGIIDVFLLLGPSISDVFRQYASLTGTQALPPLFSLGYHQSRWNYRDEADVLEVDQGFDDHNLPCDVIWLDIEHADGKRYFTWDPSRFPQPRTMLERLASKRRKLVAIVDPHIKVDSGYRVHEELRNLGLYVKTRDGSDYEGWCWPGSAGYPDFTNPTMRAWWANMFSYDNYEGSAPNLFVWNDMNEPSVFNGPEVTMLKDAQHYGGWEHRDVHNIYGLYVHMATADGLRQRSGGMERPFVLARAFFAGSQRFGAVWTGDNTAEWDHLKISIPMCLSLGLVGLSFCGADVGGFFKNPEPELLVRWYQMGAYQPFFRAHAHLDTGRREPWLLPSQHNDIIRDALGQRYSLLPFWYTLLYQAHREGIPVMRPLWVQYPQDVTTFNIDDQYLLGDALLVHPVSDSGAHGVQVYLPGQGEVWYDIQSYQKHHGPQTLYLPVTLSSIPVFQRGGTIVPRWMRVRRSSECMKDDPITLFVALSPQGTAQGELFLDDGHTFNYQTRQEFLLRRFSFSGNTLVSSSADPEGHFETPIWIERVVIIGAGKPAAVVLQTKGSPESRLSFQHDPETSVLVLRKPGINVASDWSIHLR
B3: PTPN1, endogenous (enzyme, UniProt P18031 1-435)
chain: MEMEKEFEQIDKSGSWAAIYQDIRHEASDFPCRVAKLPKNKNRNRYRDVSPFDHSRIKLHQEDNDYINASLIKMEEAQRSYILTQGPLPNTCGHFWEMVWEQKSRGVVMLNRVMEKGSLKCAQYWPQKEEKEMIFEDTNLKLTLISEDIKSYYTVRQLELENLTTQETREILHFHYTTWPDFGVPESPASFLNFLFKVRESGSLSPEHGPVVVHCSAGIGRSGTFCLADTCLLLMDKRKDPSSVDIKKVLLEMRKFRMGLIQTADQLRFSYLAVIEGAKFIMGDSSVQDQWKELSHEDLEPPPEHIPPPPRPPKRILEPHNGKCREFFPNHQWVKEETQEDKDCPIKEEKGSPLNAAPYGIESMSQDTEVRSRVVGGSLRGAQAASPAKGEPSLPEKDEDHALSYWKPFLVNMCVATVLTAGAYLCYRFLFNSNT

These are yes or no findings as the source states them, for the method shown. Binding seen in cells or lysates may run through a third protein. A yes stands for co-enrichment or nearness to the bait. Other partners may have been found. Where a sequence is shown, tags or fusion partners need not be part of it.

This assay has as its target T1, Flag-tagged UGT2B17 (UDP glucuronosyltransferase family 2 member B17), full length, expressed in prostate cancer cells. Nature of the assay: affinity purification with mass spectrometry; LNCaP cells transfected with Flag-tagged control, UGT2B17, C1 or C2; cytoplasmic or nuclear fractions; IP with a Flag antibody, on-bead trypsin digestion, LC-MS; n = 4 repeats.
In the case of BiP (from UniProt P11021 19-654), the binding result is given as “binds”.

On to “PDIA3 (also known as ERP57), endogenous (from UniProt P30101 25-505)”, for which the binding result is “binds”.

For the molecule “PDIA1 (also known as P4HB), endogenous (from UniProt P07237 18-508)”, the binding entry was “binds”.

Regarding B1, the binding entry is “binds”.

As for B2, the binding result is reported as “binds”.

B3: the binding result is “binds”.
